Data published in article PMC10817852, “Vascular injury activates the ELK1/SND1/SRF pathway to promote vascular smooth muscle cell proliferative phenotype and neointimal hyperplasia”.
No constants are given. Whether binding was seen depends on the method and setting. In cells and extracts the contact can be indirect. These calls come from enrichment with a bait or labelling near it, and not all partners need be listed.

Target: T1, Staphylococcal nuclease domain-containing protein 1 (SND1), endogenous (mouse (endogenous in primary VSMCs)) (UniProt Q78PY7)
T1 sequence: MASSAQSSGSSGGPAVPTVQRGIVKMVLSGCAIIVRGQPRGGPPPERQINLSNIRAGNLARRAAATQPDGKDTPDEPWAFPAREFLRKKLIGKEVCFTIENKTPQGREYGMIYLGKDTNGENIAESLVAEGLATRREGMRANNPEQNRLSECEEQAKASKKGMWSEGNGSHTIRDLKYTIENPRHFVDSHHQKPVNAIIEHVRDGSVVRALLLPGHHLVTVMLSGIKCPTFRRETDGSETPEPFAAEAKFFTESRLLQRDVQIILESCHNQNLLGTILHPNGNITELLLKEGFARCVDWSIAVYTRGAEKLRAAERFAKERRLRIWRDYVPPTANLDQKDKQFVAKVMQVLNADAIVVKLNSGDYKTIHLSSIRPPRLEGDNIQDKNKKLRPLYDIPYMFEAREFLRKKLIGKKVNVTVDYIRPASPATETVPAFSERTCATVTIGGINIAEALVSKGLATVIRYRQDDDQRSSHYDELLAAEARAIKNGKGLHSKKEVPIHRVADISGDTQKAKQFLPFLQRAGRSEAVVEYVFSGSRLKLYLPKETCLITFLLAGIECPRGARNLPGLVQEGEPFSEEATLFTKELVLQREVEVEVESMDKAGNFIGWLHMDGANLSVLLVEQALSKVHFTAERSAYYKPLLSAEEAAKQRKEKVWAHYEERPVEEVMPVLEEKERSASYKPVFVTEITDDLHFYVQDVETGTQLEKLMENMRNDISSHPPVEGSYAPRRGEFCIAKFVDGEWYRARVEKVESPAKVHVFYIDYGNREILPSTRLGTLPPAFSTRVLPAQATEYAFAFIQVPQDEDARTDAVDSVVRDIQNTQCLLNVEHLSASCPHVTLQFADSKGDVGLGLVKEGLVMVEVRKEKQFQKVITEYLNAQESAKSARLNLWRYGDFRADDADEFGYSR
Assay: affinity purification with mass spectrometry; SND1 antibody on protein A/G agarose beads, 2 mg total lysate of primary VSMCs, 4 °C; eluate on SDS-PAGE, silver stained, bands excised for LC-MS/MS; IgG as negative control

binding: binds
B1: Serum response factor (SRF), endogenous (protein, UniProt Q9JM73 1-504)
chain: MLPSQAGAAAALGRGSALGGNLNRTPTGRPGGGGGTRGANGGRVPGNGAGLGQSRLEREAAAAAAPTAGALYSGSEGDSESGEEEELGAERRGLKRSLSEMELGVVVGGPEAAAAAAGGYGPVSGAVSGAKPGKKTRGRVKIKMEFIDNKLRRYTTFSKRKTGIMKKAYELSTLTGTQVLLLVASETGHVYTFATRKLQPMITSETGKALIQTCLNSPDSPPRSDPTTDQRMSATGFEEPDLTYQVSESDSSGETKDTLKPAFTVTNLPGTTSTIQTAPSTSTTMQVSSGPSFPITNYLAPVSASVSPSAVSSANGTVLKSTGSGPVSSGGLMQLPTSFTLMPGGAVAQQVPVQAIHVHQAPQQASPSRDSSTDLTQTSSSGTVTLPATIMTSSVPTTVGGHMMYPSPHAVMYAPTSGLADGSLTVLNAFSQAPSTMQVSHSQVQEPGGVPQVFLTAPSGTVQIPVSAVQLHQMAVIGQQAGSSSNLTELQVVNLDATHSTKSE
